# This is one part of the list.
# System: T1, CTL2-GFP (C. trachomatis L2/434/Bu, GFP-expressing)
# T1 construct: L2/434/Bu, GFP-expressing
# Set-up: species or system HeLa; Intracellular C. trachomatis growth in HeLa cells, bulk GFP fluorescence relative to DMSO
# Details: bulk GFP, single well; 28.5 h, 10 µM; inhibitor
row,Structure (SMILES),% of control remaining [%]
1,c1cncc(COc2ccnc(N3CCCN(CCN4CCOCC4)CC3)n2)c1 [CBK084122],87.983
2,CC(=O)c1ccc(NC(=O)N2Cc3nc[nH]c3C[C@H]2c2nc(-c3ccc(C)cc3)no2)cc1 [CBK288959],102.748
3,CCOC(=O)c1cccnc1-c1cc2ccccc2o1 [CBK149237],137.972
4,Cc1ccc(S(=O)(=O)N2/C(=C\COc3ccc(Cl)cc3Cl)C(N3CCOCC3)c3ccccc32)cc1 (stereo not drawn) [CBK262740],120.933
5,O=C(NC(c1ccccn1)c1cccs1)C1CCN(S(=O)(=O)c2ccc(C(F)(F)F)cc2)CC1 (stereo not drawn) [CBK060153],120.709
6,COc1cccc(OCCN2CCC3(C2)NCCc2c3[nH]c3cc(OC)ccc23)c1 (stereo not drawn) [CBK061794],110.935
7,CN1C(=O)c2cccc3c(S(=O)(=O)Nc4ccc(C(=O)O)c(O)c4)ccc1c23 [CBK299799],97.4772
8,Cc1cc(Cl)c(S(=O)(=O)N2CCN(c3ccccn3)CC2)cc1OCC(N)=O [CBK266553],81.0748
9,Cc1occc1C(=O)Nc1cnn(CCCC(=O)O)c1 [CBK270116],109.081
10,C#CCN1N=C(c2ccc(OC)cc2)Cn2c(cc3sccc32)C1=O [CBK284209],118.773
11,CC(Oc1ccccc1)C(=O)Nc1ccc(-c2csc(-c3ccccc3)n2)cc1 (stereo not drawn) [CBK268855],98.3421
12,O=C(NCc1ccc2c(c1)OCO2)c1cnc2sccn2c1=O [CBK287446],128.7
13,Cn1cc(CNCCCN2CCc3ccccc32)c(-c2cccnc2)n1 [CBK306316],134.14
14,Cc1csc(CNCc2c(C(C)C)nn(C)c2N(C)C)n1 [CBK305089],115.048
15,Cc1oc(NC(=O)CN2CCN(c3ccccc3Cl)CC2)c(C#N)c1C [CBK305908],153.257
16,CCOC(=O)Cn1c(-c2ccc(OC)cc2)cc2cccnc21 [CBK283320],129.593
17,COc1ccc(-n2ncc(CN(C)C)n2)cc1OC [CBK112862],102.518
18,CCCC(CCC)NC(=O)c1ccc(-n2nc(C(=O)OCC)c(Cl)c2C)cc1 [CBK114323],94.9693
19,O=C(O)COc1ccc(NC(=O)c2ccc3c(c2)C(=O)N(CC2CCCO2)C3=O)cc1 (stereo not drawn) [CBK263719],133.076
20,COc1ccc(-c2cc(C(=O)N3CCN(C(C)=O)CC3)cnc2-c2ccccc2)cn1 [CBK036637],194.978
21,COc1ccc2c(c1)CCN=C2C[C@H]1CN(C(=O)NC(C)C)CC[C@H]1CC(=O)O [CBK289156],108.399
22,Nc1nonc1-n1nnc(CN2CCCCC2)c1CN1CCCCC1 [CBK270636],155.782
23,Cc1[nH]c2ccc(F)cc2c1CC(=O)N(C)CCN(C)C [CBK282726],153.874
24,CC(=O)Nc1ccc(CNc2nnc(C3CCCCC3)o2)cc1 [CBK306427],137.656
25,Cc1cc(/C=C2\SC(=O)N(CC(=O)Nc3ccccc3F)C2=O)c(C)n1-c1cccnc1 [CBK264770],118.556
26,CC(=O)c1cc(C(=O)Nc2ccc(NC(=O)C(=O)O)cc2)oc1C [CBK264011],127.699

row,Structure (SMILES),% of control remaining [%]
1,CCN(CC)c1c(C)nc2ccc(C(=O)Nc3cc(-c4ccccc4)ccc3OC)cn12 [CBK145980],79.7433
2,CC(Cc1nc(-c2cnn(C)n2)cs1)n1cc(Cl)cn1 (stereo not drawn) [CBK304256],83.1017
3,O=C(O)c1ccc(Cl)c(S(=O)(=O)NCc2ccco2)c1 [CBK304575],123.035
4,CCOC(=O)C(CNC(=O)c1c(C)nn(C)c1C)Cc1ccccc1 (stereo not drawn) [CBK305276],147.046
5,COc1cc(/C=C(/C#N)c2ccc(C(=O)O)cc2)cc(Br)c1OCC(=O)O [CBK268956],145.171
6,O=C(Oc1ccc(/C=N/c2ccc(O)c(-c3nc4ccccc4s3)c2)cc1)c1ccccc1Cl [CBK261241],117.369
7,COc1cc(Cl)nnc1Cl [CBK018956],117.039
8,Cc1cccc(/C(C#N)=C\c2cn(CC(=O)O)c3ccccc23)c1 [CBK269457],92.2839
9,CCOC(=O)C(C(=O)OCC)(N1CCOCC1)N1CCOCC1 [CBK261176],116.208
10,CC(=O)N1CCc2cc(NC(=O)C3CC4C=CC3C43CC3)ccc21 (stereo not drawn) [CBK281472],94.0881
11,COc1cc(CNC(=O)c2cncc(-c3ccc(C(=O)N4CCOCC4)cc3)c2)cc(OC)c1OC [CBK158632],102.76
12,O=C(Nc1cccc(C(F)(F)F)c1)N1CCC(n2c(=O)[nH]c3ccccc32)CC1 [CBK149845],87.1721
13,CC1CC1C(=O)N1CCC(c2nc3ccccc3cc2N)CC1 (stereo not drawn) [CBK285090],110.406
14,O=S(=O)(Nc1cccc2cc[nH]c12)c1ccc(Br)cc1C(F)(F)F [CBK159519],69.5558
15,COc1cc(C(C)NC(=O)c2ccc(=O)[nH]n2)ccc1OC1CCCC1 (stereo not drawn) [CBK298335],121.187
16,CCCCc1ccc(S(=O)(=O)Nc2nccnc2-c2cccs2)cc1 [CBK050770],120.03
17,Cc1cnc(COC(=O)N2C[C@@H](C)O[C@@H](C)C2)cn1 [CBK200124],134.347
18,CC(C)CCNC(=O)N1CCNC(=O)C1 [CBK155874],119.506
19,CCNC(=O)NC[C@H]1C[C@@H]2CCN1C[C@@H]2c1cc(C2CCCC2)nn1C [CBK288743],100.074
20,O=C(CSc1cnn[nH]1)Nc1cccc(C(F)(F)F)c1 [CBK269888],145.871
21,CCOc1ccc(N2C(=O)CC(N3CCN(c4ccc(C(=O)c5ccncc5)cc4)CC3)C2=O)cc1 (stereo not drawn) [CBK269124],125.604
22,Cc1nn(C)c(C)c1CN(C)C(=O)c1cc(-c2ccc(F)cc2)on1 [CBK281587],119.79
23,O=C(NCC(O)c1ccccc1)Nc1ccccc1 (stereo not drawn) [CBK057227],94.5447
24,CCN(Cc1ccccc1)[C@@H](CO)Cc1ccc(OC)cc1 [CBK073856T],133.679
25,Cc1cccn2c(=O)c(/C=C3\SC(=S)N(Cc4ccccc4)C3=O)c(NCCCn3ccnc3)nc12 [CBK263833],126.119
26,COc1ccc(OC)c(Nc2nc(NCC3CCCO3)c3ccccc3n2)c1 (stereo not drawn) [CBK268403C],37.445

# Ordered by molar mass (high to low): some entries from above
row,Structure (SMILES),% of control remaining [%]
11,COc1cc(CNC(=O)c2cncc(-c3ccc(C(=O)N4CCOCC4)cc3)c2)cc(OC)c1OC [CBK158632],102.76
4,CCOC(=O)C(CNC(=O)c1c(C)nn(C)c1C)Cc1ccccc1 (stereo not drawn) [CBK305276],147.046
10,CC(=O)N1CCc2cc(NC(=O)C3CC4C=CC3C43CC3)ccc21 (stereo not drawn) [CBK281472],94.0881

# Next structures

row,Structure (SMILES),% of control remaining [%]
1,Cc1ccc(S(=O)(=O)NC(C)(C)CSc2ccccc2)cc1 [CBK268354],109.175
2,C#CCN1C(=O)C2(OCCO2)c2cccc(C)c21 [CBK019069],133.542
3,COc1ccc2sc(N(Cc3cccnc3)C(=O)CCc3ccccc3)nc2c1 [CBK294423],141.672
4,COc1cc(NS(=O)(=O)c2ccc(NC(=O)c3c(C)noc3C)cc2)nc(OC)n1 [CBK268151],122.184
5,Cn1cc(CC(=O)Nc2ccc(N3CCNCC3)nc2)c2ccccc21 [CBK028275T],174.684
6,c1ccc2c(c1)[nH]c1nc(SCCN3CCCCC3)nnc12 [CBK263249],113.149
7,OCCN(Cc1ccccc1)Cc1ccc(Cl)c(Cl)c1 [CBK261908],85.1418
8,OC1CCC(Nc2cncc(-c3cccc(F)c3)n2)CC1 (stereo not drawn) [CBK065449],137.12
9,O=C(O)CSc1nc2c(-c3ccco3)c3c(nc2o1)CCCC3 [CBK269266],115.731
10,CCNC(=O)N(C)c1c(CC)nc2c(OCc3ccc(S(C)(=O)=O)cc3)cccn12 [CBK147797],118.033
11,O=C(NCC1CCOC1)c1ccc(-c2ccccc2CO)cc1 (stereo not drawn) [CBK306616],76.6767
12,CC(C)c1ccsc1C(=O)N1CCC2(C1)NC(=O)NC2=O (stereo not drawn) [CBK305188],146.534
13,Cc1ccccc1Cc1cccc(C2CCN(S(=O)(=O)c3cn[nH]c3)CC2)n1 [CBK286125],120.793
14,COC(=O)c1c(NC(=S)Nc2cnccn2)sc2c1CCC2 [CBK266935],150.086
15,O=C(CSc1nnc(-c2ccccc2Cl)[nH]1)c1ccc(O)c(O)c1 [CBK267693],138.983
16,CCOc1ccccc1C(=O)Nc1ccc(O)cc1 [CBK099037],181.509
17,CO/C(=N\S(=O)(=O)c1ccccc1)c1ccccc1 [CBK023221],119.759
18,Clc1ccc(-c2nccnc2OCc2ccccn2)cc1Cl [CBK107108],93.2219
19,CCOc1ccccc1NC(=O)C(C)Oc1ccc(OC)cc1 (stereo not drawn) [CBK266648],93.7727
20,COc1cc(CNc2nccnc2-c2ccco2)cc(OC)c1OC [CBK037320],146.066
21,Cn1c(=O)c2c(nc(CN3CCN(Cc4ccccc4)CC3)n2CCc2ccccc2)n(C)c1=O [CBK269523],133.38
22,CCCC/C=C/c1cnc(N)c(Nc2ccc(OC)cc2)n1 [CBK063890],122.51
23,CN1C(=O)COc2ccccc2C/C=C/C[C@@H]2[C@H]1CCCN2S(=O)(=O)N1CCOCC1 [CBK292063],144.331
24,Cc1c(Br)c([N+](=O)[O-])nn1C(C)C(=O)Nc1sc2c(c1C(N)=O)CCCC2 (stereo not drawn) [CBK268914],121.106
25,Cc1cc(COc2nc3ccccc3nc2NC(C)C(C)C)no1 (stereo not drawn) [CBK174007],124.894
26,O=C(NCCc1ccc(Cl)cc1)C1(Cc2ccc(-c3ccncc3)cc2)CCOCC1 [CBK285570],56.1081

# Source: article PMC12040169 (PLOS Biology, 2025)
